Results from article PMC8689518.
Results are given in words; binding and its absence hold for the method and conditions named. In cells and extracts the contact can be indirect. Some results given as binding are weak or reduced against the parent protein; the word gives no strength.

The chains behind the UniProt entries cited, without tags or fusion partners.
UniProt Q9UMN6: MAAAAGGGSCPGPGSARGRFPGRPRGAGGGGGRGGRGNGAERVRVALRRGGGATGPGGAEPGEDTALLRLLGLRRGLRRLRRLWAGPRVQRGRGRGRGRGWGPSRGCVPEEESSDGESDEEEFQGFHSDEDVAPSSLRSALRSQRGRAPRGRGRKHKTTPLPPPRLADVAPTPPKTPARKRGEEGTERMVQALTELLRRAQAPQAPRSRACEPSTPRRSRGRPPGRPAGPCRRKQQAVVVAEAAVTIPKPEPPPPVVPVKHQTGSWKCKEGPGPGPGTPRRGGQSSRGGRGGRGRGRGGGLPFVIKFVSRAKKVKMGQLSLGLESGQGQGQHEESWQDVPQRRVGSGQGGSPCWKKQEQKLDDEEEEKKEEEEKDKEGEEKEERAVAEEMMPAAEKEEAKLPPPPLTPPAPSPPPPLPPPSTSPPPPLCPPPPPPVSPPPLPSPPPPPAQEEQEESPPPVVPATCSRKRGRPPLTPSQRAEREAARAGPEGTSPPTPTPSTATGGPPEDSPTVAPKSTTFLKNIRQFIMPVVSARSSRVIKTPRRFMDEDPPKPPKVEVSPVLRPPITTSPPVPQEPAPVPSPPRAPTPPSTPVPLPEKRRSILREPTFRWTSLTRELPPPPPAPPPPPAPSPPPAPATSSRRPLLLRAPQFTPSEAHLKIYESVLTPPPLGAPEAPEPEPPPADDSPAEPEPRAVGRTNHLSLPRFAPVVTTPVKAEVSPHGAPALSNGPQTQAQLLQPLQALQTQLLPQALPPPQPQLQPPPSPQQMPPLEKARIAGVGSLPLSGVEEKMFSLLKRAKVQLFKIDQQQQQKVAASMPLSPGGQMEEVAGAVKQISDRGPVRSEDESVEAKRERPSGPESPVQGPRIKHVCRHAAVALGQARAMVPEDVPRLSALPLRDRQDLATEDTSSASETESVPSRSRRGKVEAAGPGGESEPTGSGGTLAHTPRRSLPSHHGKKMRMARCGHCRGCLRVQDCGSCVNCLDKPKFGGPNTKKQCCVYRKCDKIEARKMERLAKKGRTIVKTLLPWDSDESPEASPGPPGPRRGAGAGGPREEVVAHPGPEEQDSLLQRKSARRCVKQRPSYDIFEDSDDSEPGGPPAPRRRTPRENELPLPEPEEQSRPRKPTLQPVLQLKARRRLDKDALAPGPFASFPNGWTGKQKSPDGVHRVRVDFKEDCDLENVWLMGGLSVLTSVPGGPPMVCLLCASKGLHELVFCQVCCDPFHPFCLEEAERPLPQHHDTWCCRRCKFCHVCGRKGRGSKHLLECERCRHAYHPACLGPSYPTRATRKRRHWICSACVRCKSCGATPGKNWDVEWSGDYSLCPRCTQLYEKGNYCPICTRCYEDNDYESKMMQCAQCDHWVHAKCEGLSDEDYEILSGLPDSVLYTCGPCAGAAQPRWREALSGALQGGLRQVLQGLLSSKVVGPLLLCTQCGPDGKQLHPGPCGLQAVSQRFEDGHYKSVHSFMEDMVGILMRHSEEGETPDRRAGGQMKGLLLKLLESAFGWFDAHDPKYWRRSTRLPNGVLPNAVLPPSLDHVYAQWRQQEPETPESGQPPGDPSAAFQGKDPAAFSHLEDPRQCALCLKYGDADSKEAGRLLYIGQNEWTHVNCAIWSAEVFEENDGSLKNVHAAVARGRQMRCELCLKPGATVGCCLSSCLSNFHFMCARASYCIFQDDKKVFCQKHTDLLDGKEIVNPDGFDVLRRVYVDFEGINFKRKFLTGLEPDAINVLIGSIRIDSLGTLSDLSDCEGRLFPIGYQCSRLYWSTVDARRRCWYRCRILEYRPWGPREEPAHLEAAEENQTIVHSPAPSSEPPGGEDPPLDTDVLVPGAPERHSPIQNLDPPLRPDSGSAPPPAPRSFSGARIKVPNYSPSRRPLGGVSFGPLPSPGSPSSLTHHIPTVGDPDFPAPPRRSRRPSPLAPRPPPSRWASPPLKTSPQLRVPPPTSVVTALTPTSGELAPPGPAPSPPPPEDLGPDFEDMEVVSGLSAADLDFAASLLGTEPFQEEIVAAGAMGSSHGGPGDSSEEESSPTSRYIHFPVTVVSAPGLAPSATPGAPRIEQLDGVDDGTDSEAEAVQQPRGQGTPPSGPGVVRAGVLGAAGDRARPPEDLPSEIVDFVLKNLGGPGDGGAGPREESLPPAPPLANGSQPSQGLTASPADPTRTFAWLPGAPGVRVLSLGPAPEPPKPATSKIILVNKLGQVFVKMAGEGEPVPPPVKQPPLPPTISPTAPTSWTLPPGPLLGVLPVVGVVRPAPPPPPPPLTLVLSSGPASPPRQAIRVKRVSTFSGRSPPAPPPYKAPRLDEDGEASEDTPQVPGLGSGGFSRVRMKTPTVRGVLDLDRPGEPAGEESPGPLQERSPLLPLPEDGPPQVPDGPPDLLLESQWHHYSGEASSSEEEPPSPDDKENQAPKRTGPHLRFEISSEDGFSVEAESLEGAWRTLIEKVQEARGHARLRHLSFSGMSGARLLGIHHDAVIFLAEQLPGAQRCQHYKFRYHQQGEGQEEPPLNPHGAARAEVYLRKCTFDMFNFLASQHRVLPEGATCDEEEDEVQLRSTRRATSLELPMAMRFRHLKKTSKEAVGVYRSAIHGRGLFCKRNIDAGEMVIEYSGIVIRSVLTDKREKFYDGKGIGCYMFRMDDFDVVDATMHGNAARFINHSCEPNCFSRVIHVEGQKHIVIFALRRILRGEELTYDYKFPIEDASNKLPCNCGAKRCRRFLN
UniProt O15047: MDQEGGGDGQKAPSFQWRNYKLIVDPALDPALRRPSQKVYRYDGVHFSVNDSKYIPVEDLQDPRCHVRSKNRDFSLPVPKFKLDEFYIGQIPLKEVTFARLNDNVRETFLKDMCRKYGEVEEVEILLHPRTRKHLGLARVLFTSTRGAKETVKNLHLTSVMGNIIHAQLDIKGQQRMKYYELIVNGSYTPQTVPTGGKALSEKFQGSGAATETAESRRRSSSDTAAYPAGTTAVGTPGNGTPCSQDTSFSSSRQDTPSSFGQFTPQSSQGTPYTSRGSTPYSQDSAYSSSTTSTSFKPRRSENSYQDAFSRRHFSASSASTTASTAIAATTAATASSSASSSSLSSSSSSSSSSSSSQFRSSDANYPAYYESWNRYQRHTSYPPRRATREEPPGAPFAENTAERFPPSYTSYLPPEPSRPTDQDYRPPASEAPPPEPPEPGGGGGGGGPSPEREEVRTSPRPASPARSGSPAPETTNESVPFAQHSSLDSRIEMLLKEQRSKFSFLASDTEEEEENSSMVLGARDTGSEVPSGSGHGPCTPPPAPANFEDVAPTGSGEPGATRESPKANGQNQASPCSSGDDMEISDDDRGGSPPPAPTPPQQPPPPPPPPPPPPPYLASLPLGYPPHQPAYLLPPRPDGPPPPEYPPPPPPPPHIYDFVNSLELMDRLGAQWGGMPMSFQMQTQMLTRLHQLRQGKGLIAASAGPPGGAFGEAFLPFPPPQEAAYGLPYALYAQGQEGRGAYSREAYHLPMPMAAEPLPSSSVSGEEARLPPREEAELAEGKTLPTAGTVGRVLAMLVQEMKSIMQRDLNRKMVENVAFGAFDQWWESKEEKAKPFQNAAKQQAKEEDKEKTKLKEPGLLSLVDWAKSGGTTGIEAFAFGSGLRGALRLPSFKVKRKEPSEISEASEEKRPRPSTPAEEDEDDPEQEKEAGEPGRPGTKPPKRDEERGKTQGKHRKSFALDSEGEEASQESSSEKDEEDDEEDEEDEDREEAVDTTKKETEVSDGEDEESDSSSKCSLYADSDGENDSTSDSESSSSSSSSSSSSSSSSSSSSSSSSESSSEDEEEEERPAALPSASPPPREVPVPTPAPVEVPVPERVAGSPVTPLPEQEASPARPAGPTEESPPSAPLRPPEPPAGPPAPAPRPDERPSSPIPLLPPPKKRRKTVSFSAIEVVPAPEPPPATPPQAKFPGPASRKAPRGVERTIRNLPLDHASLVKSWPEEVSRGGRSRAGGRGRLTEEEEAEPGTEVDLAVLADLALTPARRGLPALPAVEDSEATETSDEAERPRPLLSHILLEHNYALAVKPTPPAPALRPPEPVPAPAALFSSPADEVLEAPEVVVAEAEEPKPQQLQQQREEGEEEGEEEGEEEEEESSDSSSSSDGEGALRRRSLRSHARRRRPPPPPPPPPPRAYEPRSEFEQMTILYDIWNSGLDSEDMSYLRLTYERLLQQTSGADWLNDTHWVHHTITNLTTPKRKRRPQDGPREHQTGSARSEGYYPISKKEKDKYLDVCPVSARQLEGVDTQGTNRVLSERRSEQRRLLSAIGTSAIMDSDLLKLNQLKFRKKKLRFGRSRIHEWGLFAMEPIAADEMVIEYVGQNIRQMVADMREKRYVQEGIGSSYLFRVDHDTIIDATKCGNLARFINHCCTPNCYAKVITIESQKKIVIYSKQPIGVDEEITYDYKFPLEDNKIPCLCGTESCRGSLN

target: FLAG-GRWD1 (glutamate-rich WD repeat containing 1) (human (cDNA of 293T cells)) (UniProt Q9BQ67); assay: co-IP; FLAG-tagged bait expressed in 293T cells, anti-FLAG M2 affinity gel; lysates treated with Benzonase 1 h at 4°C and precleared with mouse IgG-agarose; endogenous prey detected by Western blot

Row | binding | Substance
1 | binds | endogenous MLL1 (from UniProt Q03164 1-3969) (enzyme)
2 | binds | endogenous MLL2 (myeloid/lymphoid or mixed-lineage leukemia 2) (from UniProt Q9UMN6 1-2715) (enzyme)
3 | binds | endogenous SET1A (from UniProt O15047 1-1707) (enzyme)
